The record followed here is PubChem BioAssay AID2685 (National Center for Advancing Translational Sciences (NCATS), 2010).

Molecules are shown by their SMILES. The list shows a part of the results. The main result of the screen is listed elsewhere. These columns were measured beside it and carry no call. The list favours compounds with an active or inconclusive main result. Words in brackets tell the shape of the fitted curve; partial curves, single points and poor fits give uncertain potencies.

The experiment can be described thus: qHTS Assay for Lipid Storage Modulators in Drosophila S3 Cells.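 As to cell number change: cells counted by Cell Tracker Red CMTPX staining in the red channel.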 Particulars: BODIPY lipid droplet fluorescence, 18-24 h; for cell number change: measured here: cell count max response, cells fed with added oleic acid. The method in brief: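 Drosophila S3 cells loaded with oleic acid (400 uM, as added) and compounds at several concentrations; lipid droplets imaged by 488-nm laser-scanning cytometry, 500–530 nm intensity and object ratio to cell channel. Percent activity normalized to 20 uM Triacsin C.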
For orientation: qHTS replaces the single test concentration by a dilution series.

[1] abbreviates: measured here: cell number channel AC50, cells fed with added oleic acid.
The mark [2] stands for this setting: measured here: lipid fluorescence (Fed channel) AC50, cells fed with added oleic acid.

In the case of `CCCCNC(=O)c1ccc2c(c1)ncn2C1CCCCC1`, the cell number change amounted to 106%. Also, the AC50 (in general, the concentration at which the activity in the assay is half-maximal) under setting [1] was 14.6 µM [rising, partial curve]. The AC50 under setting [2] is 6.51 µM [rising, single point].

With `CC1=C(C(=O)OC2CCCCCCC2)C(c2ccc(O)cc2)NC(=O)N1` (stereo not drawn), the cell number change was 15.4%. In addition, the concentration at half-maximal activity (AC50) under setting [2] is 0.206 µM [falling, full curve, poor fit].

On to `COc1ccc(C2SCCN2S(=O)(=O)c2ccc(NC(C)=O)cc2)cc1` (stereo not drawn), for which the cell number change is -10.6%. Under setting [2], the AC50 was 2.91 µM [rising, full curve].

As for `COc1ccc(Nc2nc(-c3ccccc3)c(C(=O)Nc3cccnc3)s2)cc1`, the cell number change was -32.7%. Further, under setting [1], the AC50 is 0.0058 µM [falling, full curve, poor fit].

On to `CCOc1cc(S(=O)(=O)n2cc(-c3ccc(F)cc3)c(N)n2)cc(OCC)c1OCC`, for which the AC50 was 1.46 µM [rising, partial curve] under setting [1] and 1.46 µM [rising, partial curve] under setting [2].

Regarding `Cc1ccc(S(=O)(=O)NNC(=O)C(O)(c2ccccc2)c2ccccc2)cc1`, the cell number change is -10.6%. The AC50 under setting [1] was 0.184 µM [falling, full curve, poor fit]. For the same compound, the AC50 under setting [2] was 0.326 µM [falling, partial curve, poor fit].

As to `Cc1c(F)cccc1NC(=O)CSCC(=O)Nc1ccccc1`, the AC50 by setting is: under setting [1], 0.58 µM [rising, full curve]; under setting [2], 0.517 µM [rising, full curve].

Regarding `Cc1cc(=O)oc2ccc(OCC(=O)N(Cc3ccc(F)cc3)Cc3ccco3)cc12`, the AC50 under setting [2] is 0.13 µM [falling, full curve, poor fit].

As for `CC1(C)Cc2c(c(N3CCOCC3)nc3sc(C#N)c(N)c23)CS1`, the cell number change was -7.65%. Moreover, the AC50 under setting [2] is 6.51 µM [rising, single point].

As to `Cc1noc(C)c1COc1ccc(C(=O)NCC(c2c(F)cccc2Cl)N(C)C)cc1` (stereo not drawn), the concentration at half-maximal activity (AC50) under setting [1] is 0.116 µM [falling, full curve, poor fit].

As for `Cc1csc(NC(=O)CSc2nnc(C)n2Cc2ccco2)n1`, the AC50 under setting [2] is 4.61 µM [rising, single point].

With `Cc1ccnn1-c1ccc(C(=O)N2CCCN(S(=O)(=O)c3ccc(F)cc3)CC2)cc1`, the cell number change was -7.78%. Moreover, the AC50 under setting [1] is 1.84 µM [rising, partial curve]. Moreover, the AC50 under setting [2] was 2.31 µM [rising, partial curve, poor fit].

Turning to `COc1ccc(C(C(=O)NC2CCCCC2)N(Cc2cccnc2)C(=O)c2snc(C(N)=O)c2N)cc1` (stereo not drawn), the cell number change amounted to 31.7%. Also, the AC50 under setting [1] is 36.6 µM [rising, partial curve, poor fit].

Turning to `CCc1c(C(=O)N2CCCN(C)CC2)csc1C`, the cell number change was found to be 9.12%. Besides, the AC50 under setting [2] was 0.58 µM [falling, partial curve].

Take `COc1cccc(CNC(=O)CS(=O)(=O)Cc2nc(-c3ccc(C)cc3)oc2C)c1OC`: the cell number change came out at 2.88%.

With `CCn1c(CC(=O)Nc2cccc(OC)c2)nnc1SCC(=O)N1CCN(c2ccccc2)CC1`, the cell number change was -4.08%. Moreover, the AC50 under setting [2] was 16.4 µM [rising, single point].

As to `CCCCc1nc2ccccc2c(NC(=O)CNC(C)(C)C)c1CCC`, the cell number change came out at 10.2%. Further, under setting [2], the concentration at half-maximal activity (AC50) is 0.326 µM [falling, single point].

With `O=C(CN1C(=O)c2ccccc2S1(=O)=O)Nc1ccc(S(=O)(=O)N2CCCCC2)cc1`, the cell number change is -11%. Under setting [2], the AC50 is 4.61 µM [falling, single point].

As for `Cc1c(C(=O)O)[nH]c2c1C(=O)CC(c1ccc(C(C)(C)C)cc1)C2` (stereo not drawn), the cell number change was -13.9%. For the same compound, the AC50 under setting [2] is 29.1 µM [rising, partial curve, poor fit].

With `C[C@@H](C(=O)Nc1ccc2ccccc2c1)[C@@H]1C[C@@]1(C)[C@@H](NC(=O)OCc1ccccc1)c1ccccc1`, the cell number change was 26.3%. Besides, the AC50 under setting [2] is 20.6 µM [falling, single point].

With `CCOC(=O)CSc1nc2sc3c(c2c(=O)n1-c1ccc(C)cc1)CCN(C)C3`, the cell number change came out at 56.3%. For the same compound, the AC50 under setting [1] was 14.6 µM [rising, partial curve, poor fit].

On to `CC(C)(C)OC(=O)N[C@@H](C(=O)OC(C)(C)C)c1ccc2ccccc2c1`, for which the cell number change is -15%. For the same compound, the AC50 under setting [2] is 0.116 µM [falling, single point].

In the case of `Cc1oncc1C(=O)NC(C)C`, the cell number change was -15.5%. Moreover, the AC50 under setting [2] is 25.9 µM [falling, partial curve].

With `Cc1[nH]c2ccccc2c1C(=O)/C=C/c1ccccc1Cl`, the cell number change worked out at 9.41%. In addition, under setting [2], the AC50 was 0.291 µM [rising, full curve].

With `CCOc1ccc(C(c2c(C)[nH][nH]c2=O)c2c(C)[nH][nH]c2=O)cc1OCC`, the cell number change was -7.89%. Further, the AC50 under setting [2] is 0.206 µM [falling, full curve, poor fit].

For `NC(=O)c1ccccc1NC(=O)Nc1cccc(Cl)c1`, the cell number change was 53.7%. The AC50 under setting [1] is 29.1 µM [rising, single point]. Also, under setting [2], the AC50 is 6.51 µM [falling, single point].

Turning to `Cc1ccc(CN(C(=O)c2cc(=O)c3cc(Cl)c(C)cc3o2)C2CCS(=O)(=O)C2)cc1` (stereo not drawn), the cell number change is -12.6%. Besides, the AC50 under setting [2] is 23.1 µM [falling, partial curve, poor fit].

For `COc1ccc2[nH]c(C)c(C(=O)CN3CCOCC3)c2c1`, the cell number change worked out at 26.4%.

In the case of `O=C1OC(c2ccc(Cl)cc2)=N/C1=C\C=C\c1ccco1`, the cell number change amounted to 41.1%.

Turning to `CCCCOC(=O)N1CCOCCOCCN(C(=O)OCCCC)CCOCCOCC1`, the cell number change was 0.488%.

In the case of `Cc1ccc(CNc2ncnc(N)c2[N+](=O)[O-])cc1`, the cell number change amounted to 7.93%.

Consider `CCOc1ccccc1NC(=O)Nc1cc(S(=O)(=O)N(C)C)ccc1C`, for which the cell number change is -23.5%. Further, the AC50 under setting [2] was 29.1 µM [falling, single point].

As to `O=C(CCC(=O)Nc1ccccc1Cl)NNC(=O)NC1CCCCC1`, the cell number change stood at 6.49%.

As to `CC(=O)NCCn1c(SCC(=O)NCCC(C)C)nc2ccccc2c1=O`, the cell number change was 19.7%. In addition, under setting [2], the AC50 is 29.1 µM [rising, single point].

Consider `CCCCn1c(SCC(=O)Nc2ccc3c(c2)OCCO3)nnc1C(CC)N(C)C` (stereo not drawn), for which the cell number change is -64.4%. In addition, the half-maximal activity concentration (AC50) under setting [1] was 10.3 µM [falling, partial curve]. Moreover, the AC50 under setting [2] was 6.51 µM [falling, partial curve].

Consider `CC(C)OC(=O)c1cc2c(ccn2C)n1CC(=O)N(Cc1ccccc1)c1ccccc1`, for which the cell number change is -78%. The AC50 under setting [1] was 11.6 µM [falling, partial curve]. Besides, under setting [2], the AC50 is 6.51 µM [falling, partial curve].

With `CCOC(=O)c1c(C)[nH]c(C2=NNC(=Nc3ccc(OCC)cc3)SC2)c1C`, the cell number change was determined as 27.8%.

In the case of `COc1ccc2cc(C(=O)c3ccccc3)c(=O)oc2c1`, the cell number change is -28.8%. Further, the AC50 under setting [1] is 0.58 µM [falling, full curve, poor fit].

Turning to `COc1ccc(S(=O)(=O)N(CC(=O)Nc2cc(C)on2)Cc2ccccc2)cc1`, the cell number change was -17.1%. Besides, the concentration at half-maximal activity (AC50) under setting [2] was 5.8 µM [rising, single point].

For the compound `CCCCc1n[nH]c(=S)n1Cc1ccccc1`, the cell number change was -15.1%. Under setting [2], the AC50 was 35.5 µM [falling, single point].

Regarding `COc1ccccc1N1CCN(c2ccc3cc(S(=O)(=O)N4CCCCC4)ccc3n2)CC1`, the cell number change came out at 13.1%. The AC50 under setting [2] was 29.1 µM [rising, single point].

Regarding `Cc1cccc(C)c1NC(=O)c1nc(S(=O)(=O)Cc2ccccc2)ncc1Cl`, the cell number change was -79.5%. Besides, the AC50 under setting [1] was 7.31 µM [falling, partial curve]. In addition, under setting [2], the AC50 was 1.16 µM [falling, partial curve, poor fit].

Consider `O=C(NC1CCCC1)C(c1ccsc1)N(Cc1ccco1)C(=O)Cc1cccs1` (stereo not drawn), for which the cell number change is -17.3%. In addition, the AC50 under setting [2] is 23.1 µM [rising, single point].

Take `O=C(CN1C(=O)COc2ccc(Cl)cc21)Nc1nccs1`: the cell number change came out at 6.36%. For the same compound, the AC50 under setting [2] was 0.82 µM [rising, partial curve].

`O=C(CSc1nnc(C2CC2)n1C1CC1)c1ccc(F)c(F)c1`: the cell number change was -5.89%. Moreover, under setting [2], the AC50 is 6.51 µM [rising, single point].

For `Cc1ccc(OCCCC(=O)N2CCOCC2)cc1`, the cell number change amounted to 55.4%. Further, the concentration at half-maximal activity (AC50) under setting [1] is 20.6 µM [rising, single point].

With `O=C(CCS(=O)(=O)Cc1ccccc1)N1CCN(c2ccccc2)CC1`, the cell number change is -37.5%. For the same compound, the AC50 under setting [1] is 29.1 µM [falling, single point]. Also, under setting [2], the AC50 was 20.6 µM [falling, single point].

For the compound `CC(OC(=O)c1nsc(Cl)c1Cl)C(=O)NCc1cccs1` (stereo not drawn), the AC50 under setting [2] was 23.1 µM [falling, partial curve, poor fit].

`COc1cc(OC)c(C2=NOC(C(=O)NCc3cccs3)C2)cc1Cl` (stereo not drawn): the cell number change is -42.2%.

As to `N#Cc1c(-c2ccccc2Cl)c2c([nH]c1=O)-c1ccccc1OC2`, the cell number change is 7.43%. Under setting [2], the AC50 was 1.03 µM [falling, full curve, poor fit].

Consider `COc1ccccc1/C=C1\SC(=S)N(CCC(=O)NNC(=O)c2ccccc2OC)C1=O`, for which the cell number change is -7.21%. Further, the AC50 under setting [2] is 29.1 µM [falling, single point].

`CCN1/C(=C2/SC(=S)N(NC(C)=O)C2=O)Sc2ccc(OC)cc21`: the cell number change is -23.7%. Under setting [2], the AC50 was 14.6 µM [falling, single point].

For `C/C(=N\NC(=S)NCCc1ccccc1)c1ccc(Cl)cc1Cl`, the cell number change turned out to be 3.33%. In addition, the AC50 under setting [2] was 11.6 µM [rising, single point].

With `Cn1c(Cc2ccc3c(c2)OCO3)nnc1SCC(=O)N1CCc2ccccc2C1`, the cell number change worked out at 4.05%. Besides, the concentration at half-maximal activity (AC50) under setting [2] was 2.59 µM [rising, single point].

Consider `c1ccc(-c2oc3ncnc(NCCCn4ccnc4)c3c2-c2ccccc2)cc1`, for which the cell number change is -37.3%. In addition, under setting [1], the concentration at half-maximal activity (AC50) is 3.66 µM [falling, partial curve]. The AC50 under setting [2] was 18.4 µM [falling, partial curve].

Take `CCOC(=O)C1=C(c2ccccc2)N=C2SCC(=O)N2C1c1ccc2c(c1)OCO2` (stereo not drawn): the cell number change is 13.6%.

For the compound `COc1ccc(C(=O)C2CCCN(Cc3c(C)[nH]c4ccccc34)C2)c(OC)c1` (stereo not drawn), the cell number change was 12.5%. Also, the AC50 under setting [2] is 5.8 µM [rising, partial curve, poor fit].

On to `CCn1c(SCC(=O)NCCc2ccccc2)nnc1-c1cccs1`, for which the cell number change worked out at 6.44%. Moreover, the AC50 under setting [2] was 1.84 µM [rising, full curve, poor fit].

As to `O=C(COc1ccccc1)NNc1nc2c(F)cc(F)cc2s1`, the AC50 under setting [1] is 0.517 µM [rising, single point].
